No constants are given. Whether binding was seen depends on the method and setting. In cells and extracts the contact can be indirect. Some entries that bind do so weakly or less than the wild type.
What was measured:
[1] = biological target: T1, Tgf-βRIII (transforming growth factor, beta receptor III) (mouse) (UniProt O88393); assay: legend of FIG. 12e, a schematic summing up the co-IP and cross-linking of FIG. 12b, c
T1 sequence (looked up): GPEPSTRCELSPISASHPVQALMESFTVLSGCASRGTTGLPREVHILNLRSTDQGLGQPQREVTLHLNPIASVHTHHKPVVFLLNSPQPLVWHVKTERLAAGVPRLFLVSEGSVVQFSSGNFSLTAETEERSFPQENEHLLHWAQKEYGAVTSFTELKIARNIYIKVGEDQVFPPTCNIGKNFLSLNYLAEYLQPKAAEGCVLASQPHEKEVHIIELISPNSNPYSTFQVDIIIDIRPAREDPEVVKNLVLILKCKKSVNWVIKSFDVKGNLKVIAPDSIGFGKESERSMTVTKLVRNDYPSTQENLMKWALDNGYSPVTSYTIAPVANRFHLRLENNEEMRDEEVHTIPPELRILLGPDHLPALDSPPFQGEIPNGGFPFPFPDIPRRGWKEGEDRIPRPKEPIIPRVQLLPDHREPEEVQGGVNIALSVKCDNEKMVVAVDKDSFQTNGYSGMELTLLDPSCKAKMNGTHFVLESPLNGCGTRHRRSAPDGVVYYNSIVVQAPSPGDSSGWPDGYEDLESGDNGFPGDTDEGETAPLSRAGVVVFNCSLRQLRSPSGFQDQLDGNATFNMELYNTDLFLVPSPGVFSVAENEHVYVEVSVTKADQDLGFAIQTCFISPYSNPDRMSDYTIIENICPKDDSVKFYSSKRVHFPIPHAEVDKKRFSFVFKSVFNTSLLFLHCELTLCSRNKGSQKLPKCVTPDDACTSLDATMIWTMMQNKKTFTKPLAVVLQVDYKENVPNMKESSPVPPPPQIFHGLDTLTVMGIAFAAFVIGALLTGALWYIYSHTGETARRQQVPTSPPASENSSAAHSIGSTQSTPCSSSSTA

[2] = biological target: T1, Tgf-βRIII (transforming growth factor, beta receptor III) (mouse); assay: legend of FIG. 24e, a schematic summing up the co-IP and cross-linking of FIG. 24b, c
[3] = biological target: T1, Tgf-βRIII (transforming growth factor, beta receptor III) (mouse); assay: conclusion from co-immunoprecipitation and cross-linking in MEPM cells; member of one complex
[4] = biological target: T1, Tgf-βRIII (transforming growth factor, beta receptor III) (mouse); assay: cross-linking and co-immunoprecipitation, MEPM cells and extracts (control vs Tgfbr2fl/fl;Wnt1-Cre)
[5] = biological target: T1, Tgf-βRIII (transforming growth factor, beta receptor III) (mouse); assay: conclusion from co-immunoprecipitation and cross-linking in MEPM cells (Example 3); member of one complex

binding [1]: binds | binding [2]: binds | binding [3]: binds | binding [4]: binds | binding [5]: binds
B1: Tgf-β2 (transforming growth factor, beta 2) (ligand, mouse, UniProt P27090 303-414, looked up)
chain: ALDAAYCFRNVQDNCCLRPLYIDFKRDLGWKWIHEPKGYNANFCAGACPYLWSSDTQHTKVLSLYNTINPEASASPCCVSQDLEPLTILYYIGNTPKIEQLSNMIVKSCKCS

From patent US20120151612A1, “NON-SURGICAL APPROACH TO PREVENT AND CORRECT CRANIOFACIAL MALFORMATIONS DURING DEVELOPMENT” (UNIVERSITY OF SOUTHERN CALIFORNIA, priority 2010, published 2012)
